Laboratory results reported in paper PMC7795355.

Assays:
[1] = biological target: T1, OsMre11 (Meiotic recombination 11 of rice), BiFC fusion (Oryza sativa (rice)) (UniProt Q7XQR9); assay: split reporter; BiFC with split YFP (YN and YC fusions) transiently co-expressed in tobacco (Nicotiana benthamiana) leaf epidermis cells; fluorescence observed about 36 h later
T1 sequence: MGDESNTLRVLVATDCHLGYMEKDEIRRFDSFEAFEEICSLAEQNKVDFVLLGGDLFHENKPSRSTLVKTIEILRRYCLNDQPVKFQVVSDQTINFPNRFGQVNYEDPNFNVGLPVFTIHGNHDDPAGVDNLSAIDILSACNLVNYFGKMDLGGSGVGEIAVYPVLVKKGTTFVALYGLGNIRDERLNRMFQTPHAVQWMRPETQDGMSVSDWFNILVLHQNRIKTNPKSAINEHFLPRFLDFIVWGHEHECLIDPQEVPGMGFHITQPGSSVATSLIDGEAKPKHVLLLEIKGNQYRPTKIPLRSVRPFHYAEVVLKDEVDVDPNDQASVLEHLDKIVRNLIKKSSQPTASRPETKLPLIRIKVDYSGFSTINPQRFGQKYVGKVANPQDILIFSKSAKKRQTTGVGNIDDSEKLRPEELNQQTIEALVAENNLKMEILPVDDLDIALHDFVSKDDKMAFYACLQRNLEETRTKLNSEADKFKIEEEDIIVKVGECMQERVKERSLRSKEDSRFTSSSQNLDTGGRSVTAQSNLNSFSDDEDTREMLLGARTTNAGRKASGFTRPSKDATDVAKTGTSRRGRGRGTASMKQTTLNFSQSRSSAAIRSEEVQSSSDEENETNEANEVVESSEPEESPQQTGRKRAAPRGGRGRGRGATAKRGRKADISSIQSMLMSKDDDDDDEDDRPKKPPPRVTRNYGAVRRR

[2] = biological target: T2, OsNbs1 (Nijmegen breakage syndrome 1 of rice), BiFC fusion (Oryza sativa (rice)) (UniProt Q7XD82); assay: as above
T2 sequence: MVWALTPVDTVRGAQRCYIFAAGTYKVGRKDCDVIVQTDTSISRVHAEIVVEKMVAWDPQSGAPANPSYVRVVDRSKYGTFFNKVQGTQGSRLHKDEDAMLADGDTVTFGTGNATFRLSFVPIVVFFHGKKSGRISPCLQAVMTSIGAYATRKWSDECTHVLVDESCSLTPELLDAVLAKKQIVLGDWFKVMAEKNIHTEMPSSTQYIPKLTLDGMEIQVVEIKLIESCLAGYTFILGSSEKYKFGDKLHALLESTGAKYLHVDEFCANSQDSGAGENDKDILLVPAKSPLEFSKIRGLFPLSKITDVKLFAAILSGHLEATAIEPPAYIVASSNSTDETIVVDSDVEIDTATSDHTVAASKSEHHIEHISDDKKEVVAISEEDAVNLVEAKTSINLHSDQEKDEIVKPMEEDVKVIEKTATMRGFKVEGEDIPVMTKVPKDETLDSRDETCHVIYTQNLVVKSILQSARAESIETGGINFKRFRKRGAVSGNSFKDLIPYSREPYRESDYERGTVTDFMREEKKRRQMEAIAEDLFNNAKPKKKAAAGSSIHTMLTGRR

[3] = biological target: OsRad50 (radiation sensitive 50 of rice), BiFC fusion (Oryza sativa (rice)); assay: as above
[4] = biological target: OsRad50-3×Flag (Oryza sativa (rice)); assay: co-IP; two of the fusion proteins transiently co-expressed in tobacco leaf cells; immunoprecipitated with anti-Flag or anti-Myc antibody, blotted with anti-GFP, anti-Flag, anti-Myc; IgG as negative control

binding [1]: binds | binding [2]: no binding
Molecule: OsRad50 (radiation sensitive 50 of rice), BiFC fusion (Oryza sativa (rice))

binding [3]: binds
B1: OsMre11 (Meiotic recombination 11 of rice), BiFC fusion (protein, UniProt Q7XQR9 1-705)
chain: MGDESNTLRVLVATDCHLGYMEKDEIRRFDSFEAFEEICSLAEQNKVDFVLLGGDLFHENKPSRSTLVKTIEILRRYCLNDQPVKFQVVSDQTINFPNRFGQVNYEDPNFNVGLPVFTIHGNHDDPAGVDNLSAIDILSACNLVNYFGKMDLGGSGVGEIAVYPVLVKKGTTFVALYGLGNIRDERLNRMFQTPHAVQWMRPETQDGMSVSDWFNILVLHQNRIKTNPKSAINEHFLPRFLDFIVWGHEHECLIDPQEVPGMGFHITQPGSSVATSLIDGEAKPKHVLLLEIKGNQYRPTKIPLRSVRPFHYAEVVLKDEVDVDPNDQASVLEHLDKIVRNLIKKSSQPTASRPETKLPLIRIKVDYSGFSTINPQRFGQKYVGKVANPQDILIFSKSAKKRQTTGVGNIDDSEKLRPEELNQQTIEALVAENNLKMEILPVDDLDIALHDFVSKDDKMAFYACLQRNLEETRTKLNSEADKFKIEEEDIIVKVGECMQERVKERSLRSKEDSRFTSSSQNLDTGGRSVTAQSNLNSFSDDEDTREMLLGARTTNAGRKASGFTRPSKDATDVAKTGTSRRGRGRGTASMKQTTLNFSQSRSSAAIRSEEVQSSSDEENETNEANEVVESSEPEESPQQTGRKRAAPRGGRGRGRGATAKRGRKADISSIQSMLMSKDDDDDDEDDRPKKPPPRVTRNYGAVRRR

binding [4]: binds
B2: OsMre11-GFP (protein, UniProt Q7XQR9 1-705)
chain: MGDESNTLRVLVATDCHLGYMEKDEIRRFDSFEAFEEICSLAEQNKVDFVLLGGDLFHENKPSRSTLVKTIEILRRYCLNDQPVKFQVVSDQTINFPNRFGQVNYEDPNFNVGLPVFTIHGNHDDPAGVDNLSAIDILSACNLVNYFGKMDLGGSGVGEIAVYPVLVKKGTTFVALYGLGNIRDERLNRMFQTPHAVQWMRPETQDGMSVSDWFNILVLHQNRIKTNPKSAINEHFLPRFLDFIVWGHEHECLIDPQEVPGMGFHITQPGSSVATSLIDGEAKPKHVLLLEIKGNQYRPTKIPLRSVRPFHYAEVVLKDEVDVDPNDQASVLEHLDKIVRNLIKKSSQPTASRPETKLPLIRIKVDYSGFSTINPQRFGQKYVGKVANPQDILIFSKSAKKRQTTGVGNIDDSEKLRPEELNQQTIEALVAENNLKMEILPVDDLDIALHDFVSKDDKMAFYACLQRNLEETRTKLNSEADKFKIEEEDIIVKVGECMQERVKERSLRSKEDSRFTSSSQNLDTGGRSVTAQSNLNSFSDDEDTREMLLGARTTNAGRKASGFTRPSKDATDVAKTGTSRRGRGRGTASMKQTTLNFSQSRSSAAIRSEEVQSSSDEENETNEANEVVESSEPEESPQQTGRKRAAPRGGRGRGRGATAKRGRKADISSIQSMLMSKDDDDDDEDDRPKKPPPRVTRNYGAVRRR

No constants are given. Whether binding was seen depends on the method and setting. Binding seen in cells or lysates may run through a third protein. For some of these results: A result given as binding can be weak or reduced; the word gives no strength. Sequences can lack the tags named with a protein. One block for each molecule: values may come before it.
